# Data as given in PubChem BioAssay AID743454 (Peter MacCallum Cancer Centre, 2014)
# Assay: 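Knock-downs lowering viability or raising caspase 3/7 activity in vorinostat-treated resistant cells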 (primary screen)
# System: human HCT116-VR colon cancer cells, selected for vorinostat resistance
# Knock-down reagent: siRNA pool against human genes, 40 nM siRNA pool
# Duration: vorinostat for 24 h, read-out about 72 h after transfection
# Conditions: vorinostat at 2.5 µM final
# Detection: 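Two measures, CellTiter-Fluor viability and luminescent caspase 3/7 activity, each as fold change against same-plate mock wells, mean of duplicates, then screen-wide robust z-score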
# Direction: viability robust z-score: higher = more viable cells than screen typical; caspase robust z-score: higher = more caspase 3/7 activity than screen typical
# Hit rule: 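Hits are knock-downs in viability class RV1/RV2 or caspase class CA1/CA2, excluding ones that killed cells in the no-drug cell-count arm; hits then retested with single siRNAs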
# The whole screen tested about 18,000 reagents; shown is an unselected part. Over the whole deposit, 450 (2.5%) got an active call. 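Single biological run; no consistent viability z cut-off exists, so the class columns, not z-scores, define the calls.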
Target gene,viability hit class,caspase hit class,viability robust z-score,caspase robust z-score,outcome
PRB3 (proline rich protein BstNI subfamily 3),no change,no change,0.19,-0.44,inactive
VPS41 (VPS41 subunit of HOPS complex),no change,no change,-0.36,-0.26,inactive
RILPL1 (Rab interacting lysosomal protein like 1),no change,no change,0.7,0.23,inactive
GNG2 (G protein subunit gamma 2),no change,no change,0.87,-0.21,inactive
OR1A1 (olfactory receptor family 1 subfamily A member 1),no change,no change,-0.86,1.34,inactive
SPIRE2 (spire type actin nucleation factor 2),no change,no change,0.22,-0.08,inactive
PROK1 (prokineticin 1),no change,no change,-1.92,3.25,inactive
TBC1D7 (TBC1 domain family member 7),no change,no change,1.05,-0.69,inactive
UBXN10 (UBX domain protein 10),no change,no change,-1.34,0.46,inactive
ARHGEF15 (Rho guanine nucleotide exchange factor 15),no change,no change,-0.57,0.26,inactive
NFKBIE (NFKB inhibitor epsilon),no change,no change,-0.73,-0.2,inactive
DVL3 (dishevelled segment polarity protein 3),no change,no change,0.1,-0.04,inactive
ALDH6A1 (aldehyde dehydrogenase 6 family member A1),no change,no change,0.98,-0.63,inactive
PFDN6 (prefoldin subunit 6),no change,no change,-0.93,3.36,inactive
RBMY1D (RNA binding motif protein Y-linked family 1 member D),no change,no change,0.66,-0.56,inactive
MTMR4 (myotubularin related protein 4),no change,no change,0.05,-0.76,inactive
RFT1 (RFT1 glycolipid translocator homolog),no change,no change,-3.95,3.46,inactive
KCTD18 (potassium channel tetramerization domain containing 18),no change,no change,-0.24,-0.18,inactive
ACTB (actin beta),no change,no change,-0.64,0.26,inactive
"HLA-DOA (major histocompatibility complex, class II, DO alpha)",no change,no change,0.71,-1.15,inactive
CCNC (cyclin C),no change,no change,0.64,-0.22,inactive
RASA3 (RAS p21 protein activator 3),no change,no change,-0.35,-0.2,inactive
KRTAP23-1 (keratin associated protein 23-1),no change,no change,-0.4,0.52,inactive
RNF139 (ring finger protein 139),no change,no change,1.28,-0.23,inactive
BIN3 (bridging integrator 3),no change,no change,0.12,-0.68,inactive
SCN4B (sodium voltage-gated channel beta subunit 4),no change,no change,0.61,-0.36,inactive
"SETD1A (SET domain containing 1A, histone lysine methyltransferase)",no change,no change,-0.29,-0.64,inactive
SETDB1 (SET domain bifurcated histone lysine methyltransferase 1),no change,no change,-0.44,-0.26,inactive
ATG10 (autophagy related 10),no change,no change,-0.85,-0.4,inactive
DCLK1 (doublecortin like kinase 1),no change,no change,0.6,-0.38,inactive
ZNF672 (zinc finger protein 672),no change,no change,-1.2,2.04,inactive
APPL1,no change,no change,0.24,-0.3,inactive
FLT3LG (fms related receptor tyrosine kinase 3 ligand),no change,no change,0.54,0.85,inactive
HEMGN (hemogen),no change,no change,-1.61,-1.06,inactive
GPM6B (glycoprotein M6B),no change,no change,-0.72,-0.6,inactive
ARMC8 (armadillo repeat containing 8),no change,no change,1.23,-0.28,inactive
LRP12 (LDL receptor related protein 12),no change,no change,-0.54,-0.55,inactive
CLDN1 (claudin 1),no change,no change,0.96,0.58,inactive
ACAT2 (acetyl-CoA acetyltransferase 2),no change,no change,-1.13,1.25,inactive

Records above whose target name starts with D or d (2):
Target gene,viability hit class,caspase hit class,viability robust z-score,caspase robust z-score,outcome
DVL3 (dishevelled segment polarity protein 3),no change,no change,0.1,-0.04,inactive
DCLK1 (doublecortin like kinase 1),no change,no change,0.6,-0.38,inactive
